The list is a part of this screen's results and no random one: it is rich in T/C values a quarter to a half above the control, in often repeated tests (any T/C) and in doses without a T/C. Further doses and runs are listed elsewhere. T/C: endpoint of the treated group in % of that of the vehicle group. Some doses have a count of surviving animals in place of a T/C: the source files T/C as zero there, which appears to mark a toxic dose or a test without result, not a measured value. Some doses without a T/C left all or most animals alive at the check, yet need not have been tolerated: survival well below the control is almost never listed, so the zero probably covers shortened survival too. Survivors were counted at the toxicity check, usually on the fifth day, unless a day is given; later deaths do not show. Schedule codes are those of the source, read here as Q, the interval in days (D) or hours (H), X, the number of doses. For survival time, the PubChem record calls one and a half times the control and up active, and a quarter to a half above the control has no call in these data; cut-offs in other NCI protocols can differ. Some T/C values carry the count of animals alive at the toxicity check (mostly the fifth day); where none is given, no animal had died by that day. Some doses were run more than once; the results are listed from low to high. Additions like (4×) count equal records among those shown.

The assay concerns P388 leukemia ip, CD2F1 mice, survival T/C. The experiment in a line: NCI In Vivo Anticancer Drug Screen. Data for tumor model P388 Leukemia (intraperitoneal) in CD2F1 (CDF1) mice. The note with it: T/C endpoint: median survival time, higher T/C = longer survival.
Where [1] appears, read: dose: 200.0 mg/kg/injection, schedule: Q01DX005 (ip), vehicle: saline with Tween-80.

Consider `COC(=O)C[C@](O)(CCCC(C)(C)O)C(=O)O[C@@H]1C(OC)=C[C@]23CCCN2CCc2cc4c(cc2[C@H]13)OCO4`, for which the T/C (dose: 0.06 mg/kg/injection, schedule: Q01DX009 (ip), vehicle: clinical formulation) is 140 % of control [9 of 10 alive]; the T/C (dose: 0.06 mg/kg/injection, schedule: Q01DX009 (ip), vehicle: saline) was 142 % of control; the T/C (dose: 0.39 mg/kg/injection, schedule: Q04DX003 (ip), vehicle: saline) is 140 % of control; the T/C (dose: 0.5 mg/kg/injection, schedule: Q01DX005 (iv), vehicle: saline) was 137 % of control; the T/C (dose: 0.65 mg/kg/injection, schedule: Q04DX003 (ip), vehicle: saline + alcohol) is 132 % of control; the T/C (dose: 0.65 mg/kg/injection, schedule: Q04DX003 (ip), vehicle: saline) was 138 % of control. The T/C reads like this: (dose: 0.72 mg/kg/injection, schedule: Q04DX003 (ip), vehicle: saline) 126 % of control; (dose: 0.75 mg/kg/injection, schedule: Q01DX009 (ip), vehicle: saline) 192, 196, 200, 221 % of control; (dose: 0.87 mg/kg/injection, schedule: Q01DX009 (ip), vehicle: acid diluted with saline, evaluated on day 5) 186, 194, 211 % of control; (dose: 0.87 mg/kg/injection, schedule: Q01DX009 (ip), vehicle: acid diluted with saline, evaluated on day 45) 177 and 193 % of control; (dose: 1.0 mg/kg/injection, schedule: Q01DX009 (ip), vehicle: acid diluted with saline, evaluated on day 5) 228 % of control; (dose: 1.0 mg/kg/injection, schedule: Q01DX009 (ip), vehicle: acid diluted with saline, evaluated on day 45) 183 and 211 % of control. The T/C (dose: 1.0 mg/kg/injection, schedule: Q01DX009 (ip), vehicle: acid diluted with saline, evaluated on day 60) is listed as 164, 189, 191, 208 % of control; the T/C (dose: 1.0 mg/kg/injection, schedule: Q01DX009 (ip), vehicle: saline, evaluated on day 30) is 250 % of control; the T/C (dose: 1.0 mg/kg/injection, schedule: Q01DX009 (ip), vehicle: saline, evaluated on day 45) was 200, 229, 230 % of control (2×); the T/C (dose: 1.08 mg/kg/injection, schedule: Q04DX003 (ip), vehicle: saline + alcohol) was 145 % of control; the T/C (dose: 1.08 mg/kg/injection, schedule: Q04DX003 (ip), vehicle: saline) is 141 % of control; the T/C (dose: 1.2 mg/kg/injection, schedule: Q04DX003 (ip), vehicle: saline) is 131 % of control. The T/C was 197, 220, 227 % of control (dose: 1.25 mg/kg/injection, schedule: Q01DX009 (ip), vehicle: acid diluted with saline, evaluated on day 45); 175, 189 [9 of 10 alive], 218 % of control (dose: 1.25 mg/kg/injection, schedule: Q01DX009 (ip), vehicle: acid diluted with saline, evaluated on day 60); 210, 233 [9 of 10 alive], 237, 248 % of control (dose: 1.25 mg/kg/injection, schedule: Q01DX009 (ip), vehicle: saline); 203, 216, 227 % of control (dose: 1.3 mg/kg/injection, schedule: Q01DX009 (ip), vehicle: acid diluted with saline, evaluated on day 5); 196, 207, 213 % of control (dose: 1.3 mg/kg/injection, schedule: Q01DX009 (ip), vehicle: acid diluted with saline, evaluated on day 45); 207, 212, 213 % of control (dose: 1.5 mg/kg/injection, schedule: Q01DX009 (ip), vehicle: acid diluted with saline, evaluated on day 45). In addition, the T/C is 191, 197, 198, 224 % of control (dose: 1.5 mg/kg/injection, schedule: Q01DX009 (ip), vehicle: acid diluted with saline, evaluated on day 60); 219, 231, 243 [9 of 10 alive], 250 % of control (dose: 1.5 mg/kg/injection, schedule: Q01DX009 (ip), vehicle: saline); 67, 219, 223, 281 % of control (dose: 2.0 mg/kg/injection, schedule: Q01DX009 (ip), vehicle: acid diluted with saline, evaluated on day 5); 207 [9 of 10 alive], 208, 218, 227, 230 [9 of 10 alive], 243 % of control (dose: 2.0 mg/kg/injection, schedule: Q01DX009 (ip), vehicle: acid diluted with saline, evaluated on day 45); 201 and 208 % of control (dose: 2.0 mg/kg/injection, schedule: Q01DX009 (ip), vehicle: acid diluted with saline, evaluated on day 60); 140 % of control (dose: 2.0 mg/kg/injection, schedule: Q04DX003 (ip), vehicle: saline). In addition, the survivor count is, setting by setting: (dose: 2.0 mg/kg/injection, schedule: Q01DX005 (iv), vehicle: clinical formulation) 2 of 10; (dose: 2.0 mg/kg/injection, schedule: Q01DX009 (ip), vehicle: acid diluted with saline) 9 of 10; (dose: 2.0 mg/kg/injection, schedule: Q01DX009 (ip), vehicle: clinical formulation) 8 of 10; (dose: 2.0 mg/kg/injection, schedule: Q01DX009 (ip), vehicle: saline) 9 of 10; (dose: 3.0 mg/kg/injection, schedule: Q04DX003 (ip), vehicle: saline) 3 of 8; (dose: 4.0 mg/kg/injection, schedule: Q01DX005 (iv), vehicle: clinical formulation) 0 of 10. Further, the survivor count was 0 of 10 (dose: 4.0 mg/kg/injection, schedule: Q01DX005 (iv), vehicle: saline); 0 of 5 (dose: 4.0 mg/kg/injection, schedule: Q01DX009 (ip), vehicle: acid diluted with saline); 2 of 10 (dose: 4.0 mg/kg/injection, schedule: Q01DX009 (ip), vehicle: clinical formulation); 2 of 10 (dose: 4.0 mg/kg/injection, schedule: Q01DX009 (ip), vehicle: saline); 3 of 8 (dose: 5.0 mg/kg/injection, schedule: Q04DX003 (ip), vehicle: saline + alcohol); 0 of 10 (dose: 8.0 mg/kg/injection, schedule: Q01DX005 (iv), vehicle: clinical formulation). The survivor count is 0 of 10 (dose: 8.0 mg/kg/injection, schedule: Q01DX005 (iv), vehicle: saline); 0 of 10 (dose: 8.0 mg/kg/injection, schedule: Q01DX009 (ip), vehicle: clinical formulation); 0 of 10 (dose: 8.0 mg/kg/injection, schedule: Q01DX009 (ip), vehicle: saline).

Take `COc1ccc(/C=C2/SC(=S)N(Cc3ccco3)C2=O)cc1`: the survivor count is on record as 6 of 6 (dose: 25.0 mg/kg/injection, schedule: Q01DX009 (ip), vehicle: saline with Tween-80); 6 of 6 (dose: 50.0 mg/kg/injection, schedule: Q01DX009 (ip), vehicle: saline with Tween-80); 6 of 6 (dose: 100.0 mg/kg/injection, schedule: Q01DX009 (ip), vehicle: saline with Tween-80).

As to `NC(=O)c1ncnc2nc[nH]c12`, the T/C by setting is: (dose: 3.13 mg/kg/injection, schedule: Q01DX005 (ip), vehicle: saline with Tween-80) 128 % of control; (dose: 6.25 mg/kg/injection, schedule: Q01DX005 (ip), vehicle: saline with Tween-80, evaluated on day 27) 96 % of control; (dose: 6.25 mg/kg/injection, schedule: Q01DX005 (ip), vehicle: saline with Tween-80, evaluated on day 30) 101, 107, 109 % of control. The survivor count runs as follows: (dose: 12.5 mg/kg/injection, schedule: Q01DX005 (ip), vehicle: saline with Tween-80) 6 of 6; (dose: 25.0 mg/kg/injection, schedule: Q01DX005 (ip), vehicle: saline with Tween-80) 0 of 6; (dose: 50.0 mg/kg/injection, schedule: Q01DX005 (ip), vehicle: saline with Tween-80) 3 of 5; (dose: 100.0 mg/kg/injection, schedule: Q01DX005 (ip), vehicle: saline with Tween-80) 2 of 5; under setting [1], 1 of 5.

Consider `COc1cc(-c2ccc(O)cc2)c(OC)c(O)c1-c1ccc(O)c(O)c1`, for which the survivor count is 6 of 6 (dose: 0.15 mg/kg/injection, schedule: Q01DX009 (ip), vehicle: saline) and 6 of 6 (dose: 0.3 mg/kg/injection, schedule: Q01DX009 (ip), vehicle: saline).

For the compound `Cc1c2c(cc3c4ccccc4n(C)c13)C(=O)NC2=O`, the survivor count under setting [1] is reported as 5 of 5.

On to `Cc1c([O-])on[n+]1Cc1ccccc1`, for which the survivor count (dose: 120.0 mg/kg/injection, schedule: Q01DX005 (ip), vehicle: saline with Tween-80) was 0 of 6 and the survivor count (dose: 240.0 mg/kg/injection, schedule: Q01DX005 (ip), vehicle: saline with Tween-80) is recorded as 0 of 6.

For the origin of these results see PubChem BioAssay AID330 (DTP/NCI, 2004).
